{
  "sequences": {"note": "Chains of the proteins cited; added tags and fusions are not shown. Residues count along the entry.", "UniProt Q02223, residues 1-54": "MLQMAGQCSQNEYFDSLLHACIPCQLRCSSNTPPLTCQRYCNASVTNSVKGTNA"},
  "source": "patent US20250268941A1",
  "about": "(AUTOLUS, published 2025)",
  "molecular_target": "D8-41BB-ζ CAR (scFv format)",
  "experiment": "flow cytometry of primary human T cells transduced with D8-41BB-ζ (scFv), stained with recombinant BCMA-Fc plus anti-human Fc-AF647, against the RQR8 marker [a]",
  "note": "No constants are given. Whether binding was seen depends on the method and setting. Some entries that bind do so weakly or less than the wild type.",
  "data": [
    {"substance": "recombinant BCMA-Fc (from UniProt Q02223 1-54) (Fc fusion)", "values": [
      {"measurement": "binding", "result": "binds"}
    ]}
  ]
}
